According to EP0316769A2, “Disulfide bridged cyclic peptides containing a cgridri sequence useful in control of hypertension” (G.D. Searle & Co., priority 1987, dated 1989):
Part of at least one peptide drawing is inferred or uncertain, most often the ends. Residues, ends and D or L forms follow the SMILES beside them.

Key:
AP receptors = settings: both receptors; cited from earlier work
isolated rat aorta = assay: cGMP production in isolated rat aorta; format: cell-based; settings: 20 nM, 30 minutes incubation, average
[1] = test system: atrial peptide binding sites; assay: Competitive binding of 125I-AP-III on particulate rabbit lung membrane preparation; settings: at least two binding sites in rabbit lung membranes

Structure (SMILES): CC[C@H](C)[C@@H]1NC(=O)[C@H](CCCNC(=N)N)NC(=O)[C@H](CC(=O)O)NC(=O)[C@H]([C@@H](C)CC)NC(=O)[C@H](CCCNC(=N)N)NC(=O)CNC(=O)CNC(=O)[C@H](Cc2ccccc2)NC(=O)[C@@H](NC(=O)[C@H](CO)NC(=O)[C@@H](N)CO)CSSC[C@@H](C(=O)N[C@@H](CC(N)=O)C(=O)N[C@@H](CO)C(=O)N[C@@H](Cc2ccccc2)C(=O)N[C@@H](CCCNC(=N)N)C(=O)N[C@@H](Cc2ccc(O)cc2)C(=O)O)NC(=O)CNC(=O)[C@H](CC(C)C)NC(=O)CNC(=O)[C@H](CO)NC(=O)[C@H](CCC(N)=O)NC(=O)[C@H](C)NC(=O)CNC1=O [AP-III, reference compound] (HELM PEPTIDE1{S.S.C.F.G.G.R.I.D.R.I.G.A.Q.S.G.L.G.C.N.S.F.R.Y}$PEPTIDE1,PEPTIDE1,3:R3-19:R3$$$V2.0)
- affinity to guanyl cyclase-coupled and guanyl cyclase-free receptor (AP receptors): equal affinity
- increase in cGMP (isolated rat aorta): 4.5 fold
- affinity to the binding sites [1]: equal affinity
